Laboratory results: PubChem BioAssay AID1159584 (Peter MacCallum Cancer Centre, 2016)
Here is one part, drawn at random, of about 18,000 deposited reagents. The numbers tell different reagents against one gene apart. The record does not give: the amount of reagent, the time to read-out.

Aim: 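Genes whose loss is lethal only together with E-cadherin loss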 (primary screen)
System: human MCF10A breast epithelial cells, parental and CDH1-null
Reagent: siRNA against human genes
Measurement: 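ATP luminescence (CellTiter-Glo) viability per line relative to mean mock wells over all plates, and the ratio of CDH1-null to parental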
Scale: CDH1-null / parental viability ratio: higher = CDH1-null cells survive relatively better than parental; CDH1-null viability vs mock: higher = more viable CDH1-null cells; parental viability vs mock: higher = more viable parental cells

no.	target	reagent no.	CDH1-null / parental viability ratio	CDH1-null viability vs mock (fraction of mock)	parental viability vs mock (fraction of mock)
1	MKS1	1	1.11	0.4	0.36
2	JAK2	1	0.76	0.72	0.95
3	ZNF347	1	0.61	0.59	0.97
4	CLYBL	1	0.8	0.9	1.12
5	CCDC149	1	0.87	0.61	0.7
6	CWF19L2	1	1.25	1.16	0.93
7	PSME1	1	0.9	0.63	0.7
8	ARFRP1	1	1.09	0.63	0.58
9	DEFA1	1	0.72	0.46	0.64
10	NR1H2	1	2.97	0.95	0.32
11	EML3	1	1.03	0.68	0.66
12	BCL2L2	1	0.92	0.57	0.62
13	PAFAH1B3	1	0.99	0.88	0.89
14	ALDH1A1	1	0.98	0.81	0.83
15	POGK	1	1.13	0.97	0.86
16	LRRC3	1	0.92	0.36	0.39
17	HRH2	1	0.76	0.5	0.66
18	COL13A1	1	1.2	0.72	0.6
19	RER1	1	1.16	0.64	0.55
20	KSR2	1	1.01	0.76	0.75
21	POLR2B	1	1.17	0.42	0.36
22	C4orf33	1	1.04	0.83	0.8
23	TJAP1	1	1.11	0.6	0.54
24	M6PR	1	1.06	0.92	0.87
25	ZNF135	1	1.15	0.97	0.84
26	PEG10	1	1.11	0.9	0.81
27	TMEM256	1	1	0.84	0.84
28	FADD	1	0.95	0.88	0.93
29	SF3B2	1	1.45	0.29	0.2
30	TLK1	1	0.75	0.78	1.04
31	IL16	1	1.08	1.21	1.12
32	ASTE1	1	1.12	0.94	0.84
33	KCNK18	1	1.36	0.76	0.56
34	TNF	1	0.94	0.77	0.82
35	GOLGA4	1	1.02	0.98	0.96
36	SHISA4	1	0.86	0.6	0.7
37	SYT4	1	0.84	0.46	0.55
38	MCOLN1	1	1.22	1.18	0.97
39	QRFP	1	1.69	1.08	0.64
40	DDIT3	1	1.25	0.5	0.4
41	TGM4	1	0.81	0.58	0.72
42	DPF1	1	0.92	0.6	0.65
43	MIA2	1	1.09	0.89	0.82
44	MIA2	2	0.9	0.87	0.97
45	HPCA	1	1.11	0.84	0.76
46	TNFRSF1B	1	0.79	0.62	0.78
47	NOC2L	1	0.77	0.56	0.73
48	YAF2	1	0.89	0.91	1.02
49	GOLGA7	1	0.96	0.98	1.02
50	HABP4	1	0.89	0.91	1.02
51	DDX17	1	0.85	0.7	0.82
52	C1QL4	1	0.76	0.78	1.02
53	CHRM1	1	0.92	0.81	0.88
54	MYL6	1	1.06	1.04	0.98
55	CHID1	1	0.96	0.49	0.51
56	TMEM14B	1	0.8	0.33	0.41
57	COL20A1	1	0.76	0.26	0.34
58	CEP55	1	0.99	0.79	0.8
59	RAPGEFL1	1	1.08	0.78	0.72
60	CDC34	1	1.25	0.55	0.44
61	SNTG1	1	0.9	0.6	0.67
62	ZNF675	1	1	0.8	0.8
63	TIPE1	1	1.13	0.68	0.6
64	PFAS	1	0.88	0.74	0.84
65	FKBP14	1	1.24	1.17	0.94
66	ZNF280B	1	0.96	0.86	0.9
67	STATH	1	1.1	0.67	0.61
68	IGFL1	1	0.95	0.69	0.73

Records above whose gene name starts with I or i (2):
target	reagent no.	CDH1-null / parental viability ratio	CDH1-null viability vs mock (fraction of mock)	parental viability vs mock (fraction of mock)
IL16	1	1.08	1.21	1.12
IGFL1	1	0.95	0.69	0.73
